According to article PMC5591945, “Novel Protein-Protein Inhibitor Based Approach to Control Plant Ethylene Responses: Synthetic Peptides for Ripening Control” (Frontiers in Plant Science, 2017):
No constants are given. Whether binding was seen depends on the method and setting.

Molecular target: T1, tomato ethylene receptor NR (NeverRipe) (tomato (Solanum lycopersicum)) (UniProt Q41341)
T1 sequence (chain, labeled with Alexa Fluor 488-Maleimide): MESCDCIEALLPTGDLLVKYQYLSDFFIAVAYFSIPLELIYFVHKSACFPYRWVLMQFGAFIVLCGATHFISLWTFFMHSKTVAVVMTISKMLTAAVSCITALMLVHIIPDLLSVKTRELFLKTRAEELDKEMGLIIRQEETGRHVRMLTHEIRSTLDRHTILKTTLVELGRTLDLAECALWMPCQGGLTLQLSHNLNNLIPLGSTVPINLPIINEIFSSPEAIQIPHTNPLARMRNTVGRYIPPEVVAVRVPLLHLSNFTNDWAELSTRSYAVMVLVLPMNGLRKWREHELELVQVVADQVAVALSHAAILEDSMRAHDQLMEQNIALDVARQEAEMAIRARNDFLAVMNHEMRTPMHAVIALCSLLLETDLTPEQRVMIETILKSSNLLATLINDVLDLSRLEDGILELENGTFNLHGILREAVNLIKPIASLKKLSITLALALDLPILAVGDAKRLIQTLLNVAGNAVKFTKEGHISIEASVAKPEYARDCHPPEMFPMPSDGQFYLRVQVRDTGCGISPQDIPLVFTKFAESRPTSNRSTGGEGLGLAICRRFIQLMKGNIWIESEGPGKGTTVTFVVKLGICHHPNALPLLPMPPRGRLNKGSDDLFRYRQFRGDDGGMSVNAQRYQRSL
Assay: condition: only receptor chemically denatured with 4% (w/v) SDS and 40 mM DTT; MST; as a1, but receptors chemically denatured with 4% (w/v) SDS and 40 mM DTT for 5 min in the dark at RT (negative control); both purified

B1: NOP-1 octapeptide (peptide)
peptide: LKRYKRRL
notes: Used unlabeled in MST; also called NLS-derived peptide; source: synthetic peptide (GenScript)
In the case of B1, the binding is reported as “no binding”.
